Experimental findings from PMC8092261 are described below.

The target of this experiment is T1, PfYTH.2-sandwich (PfYTH.2 with a C-terminal 2xFKBP-GFP-2xFKBP tag) (P. falciparum (strain 3D7)) (UniProt O77335).
T1 sequence: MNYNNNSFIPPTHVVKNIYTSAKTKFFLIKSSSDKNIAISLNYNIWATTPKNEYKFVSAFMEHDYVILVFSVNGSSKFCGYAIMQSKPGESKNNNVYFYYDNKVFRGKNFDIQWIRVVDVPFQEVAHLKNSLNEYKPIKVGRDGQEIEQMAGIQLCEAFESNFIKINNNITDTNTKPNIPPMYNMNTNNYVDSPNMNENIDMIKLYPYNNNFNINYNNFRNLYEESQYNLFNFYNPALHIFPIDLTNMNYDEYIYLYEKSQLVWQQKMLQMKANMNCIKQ
As to the kind of experiment: affinity purification with mass spectrometry; PfYTH.2-sandwich parasites (3 replicates) against wild-type 3D7 (2 replicates, control); cross-linked with 0.5 mM DSP, lysed in RIPA buffer, anti-GFP magnetic beads overnight at 4°C, on-bead trypsin digestion, LC-MS; hits: ≥2 unique peptides in at least 2 of 3 replicates and not present in the control.

No constants are given. Whether binding was seen depends on the method and setting. Binding seen in cells or lysates may run through a third protein. A yes stands for co-enrichment or nearness to the bait. Other partners may have been found. No binding means not detected with the bait. Sequences can lack the tags named with a protein.

As to “eukaryotic initiation factor 3 subunit c (eIF3c) (P. falciparum (endogenous in strain 3D7))”, the binding result was “binds”.

On to “eukaryotic initiation factor 3 subunit a (eIF3a) (P. falciparum (endogenous in strain 3D7))”, for which the binding entry was “binds”.

For the molecule “eukaryotic initiation factor 3 subunit h (eIF3h) (P. falciparum (endogenous in strain 3D7))”, the binding entry was “binds”.

B1: polyadenylate binding protein 1 (PABP1; PF3D7_1224300) (protein, UniProt Q8I5H4 1-875)
chain: MIATGTNMMHPSFSTASLYVGDLNEDVTEAVLYEIFNTVGHVSSIRVCRDSVTRKSLGYAYVNYHNLADAERALDTLNYTNIKGQPARLMWSHRDPSLRKSGTGNIFVKNLDKSIDNKALFDTFSMFGNILSCKVATDEFGKSKSYGFVHYEDEESAKEAIEKVNGVQLGSKNVYVGPFIKKSERATNDTKFTNLYVKNFPDSVTETHLRQLFNPYGEITSMIVKMDNKNRKFCFINYADAESAKNAMDNLNGKKITDDGQIDETYDPKKEEATASTSGAANQTTGTDADKTDKNDKNNKADKNEKGDSSNANNNATATGATTTDTTTTPGETTTTTANADSTGANNNNGLSPNTNTSNTTTGSSNNSINLNENNNTAGNNNSTNNNNNSGSSMNNAGSAKKDETAASDCADTPNILYVGPHQSRARRHAILKAKFDNLNVENKNKHQGVNLYIKNLDDGIDDIMLRELFEPFGTITSAKVMRDEKEQSKGFGFVCFASQEEANKAVTEMHLKIINGKPLYVGLAEKREQRLSRLQQRFRMHPIRHHMNNPLNTPMQYASPQSPQLQFSQNTLSYGRPVITAFNQNNLISWRHQQAAQQQAVHQQAVHQQAAQQQLNFNTNLRGQINQMRLYTQNNMMNNNLNQNKPNAQLHHNQQYVPNALAQNGQQQPNLNAAGQHNAQQLQQQGNNQLLNNNMRNMNNRANRNMGNLGNMNNQKQLPLNINNKQQNAASQANQMNHQAQPQGAQAQQKNPQQMQQVPQGNNFKFTAQARNRMELPNKNANKVNTMNNNMNVNFNNNSTLTAAALASAPPSMQKQVLGENLFPLVANYHPTLAGKITGMMLEMDNSELLILLENEEQLKKKIDEALVVLQKAK
In the case of B1, the binding entry is “binds”.

B2: CELF3-like protein (PF3D7_0823200) (protein, UniProt Q8IB66 1-286)
chain: MSLTNSSKIFIGSIPKDVTEEELKTEAAKYGTITQVYYVPATAQSPRGWAFITYEQRSEAYKAIEALDYKCIFPNSQRPLDVRFASYKYNNSNDAQGGNKNVWQKHVTTDGHPYYYNSVTGHSQWEKPKEMSATNFPGKGSAPSFGPPGANVFVFHLPSHWTDMELYQHFQHFGYVVSARIQRDANGRNKGYGFVSFNNPESALNAIKGMHGFYVSGKHLKVQLKKGEEHYVQMNTPAQPQLTPAQPYSVQQPIIGNHHQPYMTHLMYGGMDSPNQMRYNTYSISR
On to B2, for which the binding entry is “binds”.

B3: PfYTH.1 (PF3D7_1419900) (protein, UniProt Q8ILQ1 1-572)
chain: MIRNKKKRKRNIYDLYIEMQKENYEDEEKRISYIDDGTITLEKHVKMRLEEQTNLLSIKGIDRVDIKQKKGKHSIICIHYIKNMCMKNLFCNYLHQLIYSRIPTCKNYMKYNYCADRVRGCCMFRHNLDNSNNNLYYNESKDEYLDDALKFLHEKNICVNYLLGFCSLGYGCRKIHKTKSRRYINIISTLPKFFLDSILVNKHLYTHLYNNPKKLSNDMNKLKDALIILSGEKYIDKNLSTNKNDNIDLLNKDVIQNNNIFNSNNIDIGIENNISHGDINNDSKNQKGVSFLPGYNNVDNKNNKYINEYIDDKNIINNKSSHTNNEKGYFHNNILLQSIDNNNNNNLIQENNINIPNVYDLNNNLIVAEKMKVFIIKCNQISHLYLSILYGVWATGKNNTRKFVNLFKDNYTIIFLFSVNESGGFQGYAKMVTMPIKNLYENLWGPITSRLGGNFRIQWIKMAKIDFDNFKHIVNPYNDNLPLKKSRDGTELPLNVASILCNKMNDMPNEDFLTGTIYEFKRRINHSSFFINLHKQNILNTNTRWDILIFNLNQKSDCTNITLIDGTEQNIT
Turning to B3, the binding entry is listed as “no binding”.

B4: gamete antigen 27 (PF3D7_1302100) (protein, UniProt Q8IEU2 1-217)
chain: MSKVQKDSAKPLDKFGNIYDYHYEHETHAPLSPRIRKVGDIEFHACSDYIYLLMTLSKDPEKFNYALKDRVSIRRYVRKNQNRYNYFLIEERVQDNIVNRISDRLISYCTDKEVTEDYIKKIDDYLWVEQRVIEEVSINVDHAREVKEKKRIMNDKKLIRMLFDTYEYVKDVKFTDDQYKDAAARISQFLIDVVDSYIIKPIPALPVTPDEPHHNNI
As to B4, the binding entry is “binds”.
